Experimental data from US20250090493A1, “THERAPEUTIC COMPOSITION DELIVERY DEVICE” (Helios Cardio Inc., priority 2021, published 2025).
Like-named read-outs stand apart in the source and are kept apart here.

Experiment: Amiodarone quantification in tissues by LC/MS after pericardial repair with amiodarone-soaked EBM patch, or IV amiodarone control, ovine model
Assay type: in vivo
Conditions: sheep; for concentration at 3 day / concentration at 28 day: 300 mg
From the text: Specifically, EBM under the tradename CardiaMend™ was used. The device was approximately 1 mm thick (range 0.75-1.54 mm). An ovine model was used for a pericardial repair procedure. […] The EBM patch was then inserted through a hole cut through the pericardium via a mini-thoracotomy approach and secured with sutures at the margins of the pericardial defect. Following closure of the superficial muscle and skin, the animals were recovered, and housed until sacrifice at 3 days, 7 days, and 28 days. […] Following sacrifice, the repair site was explored, and the implant and heart were grossly evaluated for signs of inflammation, scarring, or fibrosis. Gross images were acquired.

concentration at 3 day (EBM 7 cm by 10 cm soaked in 6 mL of 50 mg/mL amiodarone hydrochloride, pericardial patch, myocardium, day 3, read-out: Amiodarone concentration, Myocardium, Day 3 Average): 64000 ng/g
concentration at 3 day (liver, amiodarone-soaked EBM pericardial patch, liver, day 3, read-out: Amiodarone concentration, Liver, Day 3 Average): 2610 ng/g
concentration at 28 day (liver, amiodarone-soaked EBM pericardial patch, liver, day 28, read-out: Amiodarone concentration, Liver, Day 28 Average): 20 ng/g
concentration at 3 day (myocardium, amiodarone-soaked EBM pericardial patch, myocardium, day 3, range, read-out: Range of amiodarone tissue concentrations in the myocardium, 3 days): 7300 to 158000 ng/g
concentration at 28 day (myocardium, amiodarone-soaked EBM pericardial patch, myocardium, day 28, read-out: Amiodarone concentration, Myocardium, Day 28 Average): 7800 ng/g
concentration at 3 day (plasma, amiodarone-soaked EBM pericardial patch, blood plasma, day 3, read-out: Amiodarone concentration, Blood Plasma, Day 3 Average): 2550 ng/g
concentration at 28 day (plasma, amiodarone-soaked EBM pericardial patch, blood plasma, day 28, read-out: Amiodarone concentration, Blood Plasma, Day 28 Average): 0 ng/g
Amiodarone concentration, Blood Plasma, Day 28 Average (amiodarone-soaked EBM pericardial patch, blood plasma, day 28): below the limit of detection
Amiodarone concentration, Myocardium, Day 28 Average (amiodarone-soaked EBM pericardial patch, myocardium, day 28): 7.82 µg/g
SMILES: CCCCc1oc2ccccc2c1C(=O)c1cc(I)c(OCCN(CC)CC)c(I)c1 [Amiodarone, amiodarone]
